The values that follow are results of earlier work, collected in Sander's compilation of Henry's law constants (doi:10.1063/1.555654).

This series can be described thus: Henry solubility constant Hcp at 298.15 K (mol/(m3 Pa)). The following applies: reference: Mackay and Shiu (1981); cited value.

In the case of `C=CCC=C` [1,4-pentadiene], the “Henry solubility constant Hcp” value is 8.3e-05.
